Data as given in PubChem BioAssay AID652259 (Drosophila RNAi Screening Center, 2013)
The screen tested about 22,000 reagents; this is a random part of those that have a named target and a result. Of all reagents, 233 (1.1%) were called active. 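Light values are raw, unnormalised plate reads; the ratio scores behind the reporter calls were not deposited.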 The numbers tell different reagents against one gene apart. A plus sign joins genes that one reagent is predicted to hit. Not stated in the record: the amount of reagent, the time to read-out, the dose of the treatment.

- Aim: 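Knock-downs that push a Wingless-driven reporter up or down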 (primary screen)
- Cells: Drosophila clone 8 imaginal disc epithelial cells
- Reagent: long dsRNA against Drosophila genes
- Treatment: pathway stimulated by co-transfected Wingless expression plasmid
- Read-out: 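Dual luciferase reads per well after Wingless plasmid stimulation: reporter firefly light and Renilla control light; activity is firefly divided by Renilla, a ratio not deposited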
- Direction: firefly reporter light: higher = more Wg reporter light, before normalisation; Renilla control light: higher = more transfected or surviving cells
- Hit rule: 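a knock-down is a candidate when at least two out of four statistical tests show it departing from its plate mean; one test alone signals a weak candidate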
- Meaning of the calls: active = candidate regulator (raises or lowers reporter); inactive = not a candidate

gene,reagent,"reporter change call, replicate 1","firefly reporter light, replicate 1","firefly reporter light, replicate 2","Renilla control light, replicate 1","Renilla control light, replicate 2",call
rho-5,1,,3968,12609,1174,5549,inactive
Osi15,1,,8647,,1681,,inactive
kat-60L1,1,,9426,,4034,,inactive
CG12766,1,,6459,,3958,,inactive
CG34038,1,,18801,,8951,,inactive
RpL36,1,,22041,,10810,,inactive
wun,1,,11217,,2851,,inactive
CR14033,1,,15691,,4803,,inactive
RpS24,1,,3109,6400,717,3297,inactive
asRNA:CR43426,1,,2576,,1041,,inactive
shop,1,,2889,7980,1202,2672,inactive
CG16978,1,,4016,6496,1301,2583,inactive
CG11127,1,,11120,,4349,,inactive
Lipt1,1,,13952,,10598,,inactive
mRpL37,1,,12775,,3818,,inactive
CG12290,1,,1458,5792,976,2131,inactive
CG11586,1,,10162,8.00e5,4080,4.02e5,inactive
obst-F,1,,14675,,2944,,inactive
CG33648,1,,19259,,10336,,inactive
qua,1,,2070,5106,1121,3133,inactive
Cpr30B,1,,3680,10220,1120,4263,inactive
S2P,1,,6569,,2018,,inactive
CG11249,1,,10288,,5146,,inactive
robls54B,1,,18864,,13155,,inactive
robo2,1,,4016,10836,1312,3749,inactive
robo2,2,,2448,9729,1241,3170,inactive
robo2,3,,2533,8279,969,2832,inactive
robo2,4,,6314,,3108,,inactive
CG14913,1,,3192,9130,822,3479,inactive
CG16837,1,,3367,5900,960,1938,inactive
CG7208,1,,13984,,2617,,inactive
Pepck2,1,,5818,,2603,,inactive
CG15772,1,,14129,,7072,,inactive
twi,1,Wg reporter activity raised,6164,10987,728,1760,active
5-HT2A,1,,4832,,1936,,inactive
CG4332,1,,2605,6614,827,1808,inactive
CG13544,1,,2608,5848,774,2391,inactive
pgc,1,,2038,9987,583,3520,inactive
Jabba,1,,17584,,4112,,inactive
CG11905,1,,5509,,2989,,inactive
CG10086,1,,10936,,2454,,inactive
Hel25E,1,,3620,,1350,,inactive
CG8726,1,,8247,,3032,,inactive
CG17141,1,,12134,,10713,,inactive
Fili,1,,11872,,7808,,inactive
Fili,2,,1958,7056,770,2717,inactive
Fili,3,,1901,10003,689,2413,inactive
CG7906,1,,5936,,3031,,inactive
CCDC53,1,,2150,4171,902,2325,inactive
csul,1,,6393,,2228,,inactive
Nplp1,1,,11040,,3092,,inactive
row,1,Wg reporter activity raised,13814,,1696,,active
row,2,,6227,,1488,,inactive
E(spl)m7-HLH,1,,17232,,15482,,inactive
CG8321,1,,8961,,2601,,inactive
Ice2,1,,1872,5808,1107,1756,inactive
prel,1,,14973,,3749,,inactive
CG14316,1,,14108,,3888,,inactive
CG9067,1,,9188,,3736,,inactive
Sbat,1,,16515,,7274,,inactive
ATPsyndelta,1,,13488,,4208,,inactive
CG5846,1,,8817,,1202,,inactive
Or85f,1,,12944,,3995,,inactive
CG5126,1,,10826,,5868,,inactive
crol,1,Wg reporter activity raised,46548,,1916,,active
crol,2,,1.26e6,1.46e6,2.61e5,2.23e5,inactive
CG5746,1,,3159,6507,1488,2032,inactive
CG8289,1,,2684,7059,753,2578,inactive
CSN6,1,,18668,,10512,,inactive
hbt,1,,10291,,6048,,inactive
hbt,2,,3187,4537,1235,2953,inactive
CG13643,1,,17321,,13816,,inactive
CG13643,2,,18724,,15458,,inactive
Nha2 + asRNA:CR43454,1,,3076,,1570,,inactive
CG10494,1,,10706,,2646,,inactive
CG15484,1,,3286,9959,1645,4936,inactive
CG15484,2,,5.29e5,4.84e5,2.44e5,3.21e5,inactive
CG13048,1,,7469,,2076,,inactive
alpha-Man-IIb,1,,2317,4808,1104,1065,inactive
Irk2,1,,3126,4789,1429,1796,inactive
Hsp27,1,,4696,,1383,,inactive
CG31437,1,,3621,,1705,,inactive
thoc7,1,,10242,,2669,,inactive
Dtwd2,1,,15289,,3884,,inactive
Wdr37,1,,2583,7200,1014,2180,inactive
fra,1,,5788,,2345,,inactive
Abcd3,1,,23040,,12658,,inactive
CG10211,1,,2993,6515,805,2982,inactive
CG3982,1,,7944,,628,,inactive
CG1440,1,,31035,,14108,,inactive
CG33514,1,,3418,9696,1993,3802,inactive
CG33514,2,,1472,6759,1209,3560,inactive
CG33514,3,,7.33e5,7.43e5,4.58e5,3.31e5,inactive

An excerpt from above, reduced to “Renilla control light, replicate 1”.
CG11249 = 5146
robls54B = 13155
robo2 #1 = 1312
robo2 #2 = 1241
robo2 #3 = 969
robo2 #4 = 3108
CG14913 = 822
CG16837 = 960
CG7208 = 2617
Pepck2 = 2603
CG15772 = 7072
twi = 728
5-HT2A = 1936
CG4332 = 827
